HELM strings list residues between dots; [ac] is acetyl, [am] amide, other brackets name non-standard units.
Experiment: general procedure: Fmoc solid-phase peptide synthesis; Chlorotrityl resin (1.1 mmol/g); HBTU, DIPEA
Conditions: conjugation step

Substance	conjugation yield	final purity (method not given)
PEPTIDE1{[Cap-I-65].[bAla].[Sar].[Sar].[Sar].[Sar].[Sar].[Sar].[Sar].[Sar].[Sar].[Sar].A.C.[dA].N.E.[1Nal].[dA].C.E.D.F.Y.D.[tBuGly].C.[am]}|CHEM1{[TBMB]}$PEPTIDE1,CHEM1,14:R3-1:R1|PEPTIDE1,CHEM1,20:R3-1:R2|PEPTIDE1,CHEM1,27:R3-1:R3$$$V2.0	12.37%	93.54%
PEPTIDE1{[Cap-I-66].[bAla].[Sar].[Sar].[Sar].[Sar].[Sar].[Sar].[Sar].[Sar].[Sar].[Sar].A.C.[dA].N.E.[1Nal].[dA].C.E.D.F.Y.D.[tBuGly].C.[am]}|CHEM1{[TBMB]}$PEPTIDE1,CHEM1,14:R3-1:R1|PEPTIDE1,CHEM1,20:R3-1:R2|PEPTIDE1,CHEM1,27:R3-1:R3$$$V2.0	11.95%	99.06%
PEPTIDE1{[Cap-I-68].[bAla].[Sar].[Sar].[Sar].[Sar].[Sar].[Sar].[Sar].[Sar].[Sar].[Sar].A.C.[dA].N.E.[1Nal].[dA].C.E.D.F.Y.D.[tBuGly].C.[am]}|CHEM1{[TBMB]}$PEPTIDE1,CHEM1,14:R3-1:R1|PEPTIDE1,CHEM1,20:R3-1:R2|PEPTIDE1,CHEM1,27:R3-1:R3$$$V2.0		96.2%

— patent publication US20200291096A1 (priority 2017, published 2020)
